# About 6,100 (1.1%) of roughly 580,000 compounds were called active. The inconclusive results got no clear call from the source; some entries with a clear call stand among them for comparison. Calls follow the shape of the dose curve; as a rule, active = well fitted inhibition curve with a large enough effect; inconclusive = small, poorly fitted or top-dose-only effect, or another doubt; inactive = no such curve, though single readings can be large or run the other way. Potencies beside an inconclusive call are fits to weak or partial responses and may not hold up.
# Chains of the proteins cited; added tags and fusions are not shown. Lines headed by an entry give the natural chain unless they say otherwise; changes in a name come on top.
# UniProt P18054: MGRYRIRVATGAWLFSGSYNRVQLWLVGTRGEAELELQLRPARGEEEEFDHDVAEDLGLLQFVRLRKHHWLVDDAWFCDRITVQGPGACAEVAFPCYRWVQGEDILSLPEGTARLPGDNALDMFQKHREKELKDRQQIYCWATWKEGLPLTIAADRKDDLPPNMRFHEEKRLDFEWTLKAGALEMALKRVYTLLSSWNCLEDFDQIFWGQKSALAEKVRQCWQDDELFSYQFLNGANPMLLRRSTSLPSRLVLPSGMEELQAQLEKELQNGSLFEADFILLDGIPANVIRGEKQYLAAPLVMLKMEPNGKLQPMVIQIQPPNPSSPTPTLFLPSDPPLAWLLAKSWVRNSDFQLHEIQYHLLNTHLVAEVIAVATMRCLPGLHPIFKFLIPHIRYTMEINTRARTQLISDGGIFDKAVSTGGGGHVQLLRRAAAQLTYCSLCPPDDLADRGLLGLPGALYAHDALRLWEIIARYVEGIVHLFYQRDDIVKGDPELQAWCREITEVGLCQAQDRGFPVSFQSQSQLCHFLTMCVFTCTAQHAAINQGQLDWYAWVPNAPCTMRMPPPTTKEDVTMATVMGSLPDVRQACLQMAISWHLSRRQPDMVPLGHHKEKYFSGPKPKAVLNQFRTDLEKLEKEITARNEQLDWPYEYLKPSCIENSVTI
# Biological target: Polyunsaturated fatty acid lipoxygenase ALOX12 (Homo sapiens) (UniProt P18054)
# Test: Primary qHTS assay for inhibitors of human arachidonate 12S-lipoxygenase (ALOX12): Round 2
# Settings: purified 12hLO, xylenol orange hydroperoxide absorbance; activity change, negative = inhibition: at 108 µM (top of the series) unless noted
# In short: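 Hydroperoxide product was detected by ferrous iron/xylenol orange as the 573 to 405 nm absorbance ratio. Arachidonic acid at 40 uM (final) was turned over for 30 min at room temperature by 150 nM human 12hLO, pH 7.0 Hepes buffer, after 15 min compound preincubation.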
# % is scaled to controls: 0 for no effect and ±100 for the full control effect; potency is read from the fitted curve at half-maximal effect.
SMILES,"activity change, negative = inhibition",Potency
COc1ccc(Cc2nnc(SCC(=O)Nc3ccc(F)c(F)c3)n2C)cc1,inactive: -2.68%,–
CCOC(=O)CC(NC(=O)c1cc2cc(OC)ccc2oc1=O)c1ccc(C)cc1 (configuration not stated),–,"inconclusive: 79.4 µM [inhibitor, single point]"
CC12C(=O)N(c3ccccc3)C(=O)C1C(c1ccccc1)N1CCCN12 (configuration not stated),–,"inconclusive: 100 µM [inhibitor, partial curve, poor fit]"
CCCc1cc(=O)[nH]c(SCc2nc(-c3ccc(OC)c(OC)c3)no2)n1,–,"inconclusive: 50.1 µM [inhibitor, partial curve, poor fit]"
CC(/C=C1\SC(=S)N(CCC(=O)Nc2cccc(C(=O)O)c2)C1=O)=C\c1ccccc1,–,"inconclusive: 50.1 µM [inhibitor, partial curve, poor fit]"
CCc1ccccc1OCC(=O)Nc1nc(-c2cccnc2)cs1,inactive: 18.9%,–
c1ccc(-c2cc(N3CCOCC3)nc3ccccc23)cc1,–,"inconclusive: 0.631 µM [inhibitor, full curve, poor fit]"
COc1ccc(C2C(C(C)=O)=C(O)C(=O)N2CCc2c[nH]c3ccccc23)cc1OC (configuration not stated),–,"inconclusive: 0.0794 µM [inhibitor, full curve, poor fit]"
CC(=O)Oc1ccc(C(=O)[C@H]2[C@H]3C(=O)N(c4ccc5ccccc5c4)C(=O)[C@H]3[C@@H]3C=CC=NN32)cc1,inactive: -4.55%,–
COC(=O)c1ccc(NC(=O)CC2C(=O)N(c3ccccc3)C(=O)N2Cc2ccc(F)cc2)cc1 (configuration not stated),inconclusive: -35.8% [inhibitor],–
Cc1ccccc1OCCN(C)C(=O)Cc1c[nH]c2ccccc12,inactive: 24.6%,–
Cc1cc(C(=O)CCC(=O)N(C)CC(=O)Nc2ccccc2Br)c(C)s1,inactive: -19.3%,–
Cc1cc(F)ccc1-n1c(SCC(=O)NC2CCCC2)nc2ccsc2c1=O,inactive: -19.8%,–
Cc1cccc(N2CCN(CC(=O)NCc3ccc(Cl)cc3)CC2)c1C,–,"inconclusive: 89.1 µM [inhibitor, partial curve, poor fit]"
COC(=O)CNc1c(-c2ccccn2)nc2ccc(Br)cn12,inactive: 0%,–
CC(=O)Nc1ccc2sn(-c3ccccc3)c(=O)c2c1,–,active: 1.12 µM
CN(C)c1ccc(NC(=O)N2CCOCC2)cc1,inactive: 0%,–
C[C@@]1(O)CCN(C(=O)c2ccc(N3CCCC3=O)cc2)C[C@@H]1O,inactive: 24.3%,–
COc1ccc(-c2ccc(C(C)=O)cc2)cc1[C@H]1[C@H]2C=CC[C@@H](C)[C@@H]2C(=O)N1Cc1ccccc1,–,"inconclusive: 100 µM [inhibitor, single point]"
Cc1cc(C)c(NC(=O)c2csc3c2CCCC3)c(C)c1,–,"inconclusive: 3.55 µM [inhibitor, full curve]"
CCc1noc(C)c1C(=O)N1CCN(S(=O)(=O)c2ccc(C(C)=O)cc2)CC1,–,"inconclusive: 112 µM [inhibitor, single point]"
O=C(Nc1ccc(NC(=S)NC(=O)c2ccco2)cc1)c1ccc(Br)cc1,inactive: -19%,–
CCCOc1ccc(/C=N/Nc2cccc([N+](=O)[O-])c2)c(O)c1,–,"inconclusive: 50.1 µM [inhibitor, partial curve, poor fit]"

# Entries of single compounds from above. Values in the order: activity change, negative = inhibition	Potency
# `CC(=O)Nc1ccc2sn(-c3ccccc3)c(=O)c2c1` in the list: –	active: 1.12 µM
# `COC(=O)c1ccc(NC(=O)CC2C(=O)N(c3ccccc3)C(=O)N2Cc2ccc(F)cc2)cc1` (configuration not stated) in the list: inconclusive: -35.8% [inhibitor]	–
# `Cc1ccccc1OCCN(C)C(=O)Cc1c[nH]c2ccccc12` in the list: inactive: 24.6%	–

# The list continues.

SMILES,"activity change, negative = inhibition",Potency
COc1cccc(C(=O)N2CC3(Cc4ccccc4N([S+](C)(=O)[O-])C3)C2)c1,inactive: 9.01%,–
COc1ccc(C2=CSC3=NNC4(CCCCC4)NN23)cc1,–,"inconclusive: 39.8 µM [inhibitor, partial curve, poor fit]"
c1ccc(COc2ccc(CNCc3cccs3)cc2)cc1,–,"inconclusive: 56.2 µM [inhibitor, partial curve, poor fit]"
CCCCCCN(CCC(=O)NCCOC)C(=O)c1ccoc1,–,"inconclusive: 20 µM [inhibitor, full curve, poor fit]"
CN1CCOc2c(C(=O)NCCN3CCNC3=O)cc(-c3cccnc3)cc21,inactive: 0.611% [at 176 µM],–
CCN(C(=O)COC(=O)c1nc(Cl)ccc1Cl)c1c(N)n(Cc2ccccc2)c(=O)[nH]c1=O,–,"inconclusive: 89.1 µM [inhibitor, single point]"
CCNc1ncc2nc(-c3cn(C)c4ccccc34)c(=O)n(-c3ccccc3)c2n1,–,"inconclusive: 89.1 µM [inhibitor, single point]"
Cc1ccc(Sc2ccc(C=O)o2)cc1,–,"inconclusive: 70.8 µM [inhibitor, single point]"
N#Cc1cccc(NCc2cc(Br)ccc2F)c1,–,"inconclusive: 39.8 µM [inhibitor, partial curve, poor fit]"
c1csc(CNCC2CCNCC2)c1,–,"inconclusive: 31.6 µM [inhibitor, partial curve, poor fit]"
Cc1noc(/C=C/c2ccccn2)c1[N+](=O)[O-],–,"inconclusive: 112 µM [inhibitor, single point]"
COCCn1c(SCC(C#N)CCC#N)nnc1-c1ccc(Cl)cc1 (configuration not stated),–,"inconclusive: 35.5 µM [inhibitor, partial curve, poor fit]"
CC(=O)c1ccc(OCC(=O)NC2CCc3ccccc32)cc1 (configuration not stated),inactive: 16.6%,–
O=C(CCCn1c(=S)[nH]c2ccsc2c1=O)NCc1ccco1,–,"inconclusive: 1.58 µM [inhibitor, full curve, poor fit]"
Cc1ccc(NC(=O)c2ccc(CN3C(=O)NC4(CCOCC4)C3=O)cc2)cc1C,–,"inconclusive: 25.1 µM [inhibitor, full curve, poor fit]"
Cc1cc(CNC(=O)c2cc(-c3ccccc3F)cc3c2OCCN3C)no1,–,"inconclusive: 63.1 µM [inhibitor, partial curve, poor fit]"
COc1cccc(C(=O)CC(=O)C(=O)Nc2ccc([N+](=O)[O-])cc2C)c1,–,"inconclusive: 89.1 µM [inhibitor, partial curve, poor fit]"
COc1cc(C2CC(=O)N3CN(c4ccc(C)c(Cl)c4)CSC3=C2C#N)ccc1O (configuration not stated),–,active: 0.891 µM
COc1ccc(N2CCN(C(=O)c3ccc(COc4ccc([N+](=O)[O-])cc4)o3)CC2)cc1,inactive: 17.3%,–
COc1ccc(-c2cn(-c3ccc(C)cc3)c(=O)n2CC(=O)Nc2ccc(OC)c(OC)c2)cc1,inactive: -3.1%,–
O=S(=O)(NC[C@H]1OC[C@@H](NCc2ccccc2F)[C@@H]1O)c1ccccc1,–,"inconclusive: 100 µM [inhibitor, partial curve, poor fit]"
Cc1cccc(C)c1NC(=O)CS(=O)(=O)c1nc(-c2ccc(Cl)cc2)cn1-c1ccccc1,–,"inconclusive: 35.5 µM [inhibitor, partial curve, poor fit]"
CCN(CC)C(=O)[C@@H]1CCC[C@@H](N(C)C)CN(C)C(=O)C1,inactive: -19.4% [at 176 µM],–

SMILES,"activity change, negative = inhibition",Potency
CC1(C(=O)NS(=O)(=O)c2cccc(C#N)c2)CCN1C(=O)CC1CC1 (configuration not stated),–,"inconclusive: 56.2 µM [inhibitor, partial curve, poor fit]"
Cc1oc(-c2ccccc2F)nc1CN1CCC(C(=O)NCc2cccs2)CC1,–,"inconclusive: 100 µM [inhibitor, single point]"
CCc1nnc(NC(=O)c2cccc3ncccc23)s1,–,"inconclusive: 7.08 µM [inhibitor, full curve, poor fit]"
O=C(CCN1CCCCC1)NNC(=S)NC(=O)c1ccc(Br)cc1,–,"inconclusive: 44.7 µM [inhibitor, partial curve]"
O=C(Nc1ccc2[nH]ncc2c1)c1nn(-c2ccccc2)c(=O)c2ccccc12,inactive: 7.85%,–
O=C1C=C(c2ccc3[nH]ccc3c2)C[C@@H](c2ccc(F)cc2)C1,–,"inconclusive: 44.7 µM [inhibitor, partial curve, poor fit]"
CCOCC(=O)N1CCC(Nc2nccnc2OC)CC1,inactive: 35.8%,–
Cc1ccnc(Nc2nc(-c3ccc(F)c(C)c3)cs2)c1,–,"inconclusive: 70.8 µM [inhibitor, partial curve, poor fit]"
CCOC(=O)N1CCN(C(=O)COc2ccc(S(=O)(=O)NC3CCCCC3)cc2C)CC1,inactive: 0.645%,–
O=C(CCc1nc(-c2ccccc2)c(-c2ccccc2)o1)N1CCCCC1,–,"inconclusive: 44.7 µM [inhibitor, partial curve, poor fit]"
COc1ccc(NC(=O)c2ccc3c(c2)NC(=O)CS3)cc1S(=O)(=O)Nc1ccc(Br)cc1,–,"inconclusive: 35.5 µM [inhibitor, partial curve]"
COc1ccc2c(c1)N(C)/C(=C1/SC(=S)N(NC(C)=O)C1=O)S2,–,"inconclusive: 79.4 µM [inhibitor, partial curve, poor fit]"
Cn1c(=O)c2cc(NC(=S)NCc3ccccc3F)ccc2n1Cc1ccccc1,–,"inconclusive: 35.5 µM [inhibitor, single point]"
COc1cccc(-c2ccccc2NC(=O)C2CCN(Cc3cc(OC)ccc3O)CC2)c1,–,"inconclusive: 2 µM [inhibitor, full curve, poor fit]"
O=S1(=O)N=C2CCCCCN2C(c2ccc(F)cc2)N1 (configuration not stated),inactive: 0%,–
C=C1CCN(c2ccc(C(=O)NCCC)cc2[N+](=O)[O-])CC1,–,"inconclusive: 70.8 µM [inhibitor, partial curve, poor fit]"
COc1ccc(C)cc1C(C)NC(=O)Cc1c[nH]c2ccccc12 (configuration not stated),–,"inconclusive: 44.7 µM [inhibitor, partial curve, poor fit]"
CC1CC(C)CN(C(=O)CCNC(=O)c2ccccc2Cl)C1 (configuration not stated),inactive: 59.1%,–
CCOc1ccc(NC2=CC(=O)CCC2)cc1,inactive: -13.8%,–
COCCCn1c(C23CC4CC(CC(C4)C2)C3)n[nH]c1=S,–,"inconclusive: 89.1 µM [inhibitor, partial curve, poor fit]"
COc1ccc(CN2C(=O)CN=C2Nc2ccc(C)cc2C)cc1,–,"inconclusive: 44.7 µM [inhibitor, partial curve, poor fit]"

# Source: PubChem BioAssay AID1671190 (National Center for Advancing Translational Sciences (NCATS), 2021)
